The record followed here is patent publication US6436942B1, “Enantiomers of 1[(4-chloro-phenyl) phenylmethyl]-4-[(4-methylphenyl) sulfony]piperazine” (UCB, S.A., priority 1993, dated 2002).

The structures appear in SMILES notation. Counter-ions that a name gives are not always drawn.

The data set deals with mice. Put plainly: Toxicity: lethal dose in mice after intraperitoneal injection. It is filed as in vivo. Particulars: dose causing death in 2 out of 3 mice. From the text:
The compounds of formula V have low toxicity. The lethal dose (causing death in 2 out of 3 mice following intraperitoneal injection of the compounds) is appreciably higher than the dose required to inhibit the cutaneous reaction induced by histamine in the dog. Table VI gives the values for the lethal doses (in mice) for the compounds of formula V.

In turn, `O=C(O)COCCN1CCN(C(c2ccccc2)c2ccc(Cl)cc2)CC1` (single isomer, unassigned) [O, levorotatory dihydrochloride of 2-[2-[4-[(4-chlorophenyl)phenylmethyl]-1-piperazinyl]ethoxy]acetic acid] came in with a Lethal dose of 0.0003 mol/kg.
